In patent US20070031410A1:
No constants are given. Whether binding was seen depends on the method and setting. Some entries that bind do so weakly or less than the wild type. Tags and fused reporters may be left off the sequences shown.

The chains behind the UniProt entries cited, without tags or fusion partners. Residues count along the entry.
UniProt Q9ULZ3: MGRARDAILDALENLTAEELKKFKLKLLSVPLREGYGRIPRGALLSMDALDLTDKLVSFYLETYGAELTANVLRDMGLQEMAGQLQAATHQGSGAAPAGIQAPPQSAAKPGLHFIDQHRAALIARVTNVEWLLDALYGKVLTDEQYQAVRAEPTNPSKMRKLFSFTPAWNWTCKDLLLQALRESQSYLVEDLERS
UniProt Q96P20, residues 1-93: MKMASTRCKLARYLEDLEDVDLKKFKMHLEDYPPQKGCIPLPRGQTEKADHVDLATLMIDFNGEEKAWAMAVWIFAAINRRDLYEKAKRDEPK

Key:
[1] = molecular target: Myc-ASC (Apoptosis speck protein containing a CARD, Myc-tagged) (UniProt Q9ULZ3); experiment: Immunofluorescence co-localization in perinuclear specks, HeLa cells co-transfected with GFP-POP2 and Myc-ASC
[2] = molecular target: Myc-ASC (Apoptosis speck protein containing a CARD, Myc-tagged) (UniProt Q9ULZ3); experiment: Speck formation on coexpression, immunofluorescence
[3] = molecular target: Myc-ASC (Apoptosis speck protein containing a CARD, Myc-tagged) (UniProt Q9ULZ3); experiment: Immunofluorescence co-localization, HeLa cells transfected with GFP-POP2 and Myc-ASC
[4] = molecular target: CIAS1-PYD (pyrin only CIAS1 construct) (UniProt Q96P20); experiment: Inferred from reduced speck formation in HeLa cells co-expressing CIAS1-PYD, GFP-POP2 and Myc-ASC

Measured: binding

B1: GFP-POP2 (pyrin-only protein 2 fused to GFP) (protein, not shown: large carriers)
chain: MASSAELDFNLQALLEQLSQDELSKFKSLIRTISLGKELQTVPQTEVDKANGKQLVEIFTSHSCSYWAGMAAIQVFEKMNQTHLSGRADEHCVMPPP
binds: [1] | [2] | [3] | [4]
